The test system of assay [1] is HeLa K (ENP1 immunofluorescence, +LMB). Nature of the assay: fraction of cells with nucleolar or nucleolar/nucleoplasmic ENP1 signal (MainHitrate); higher = more cells with nucleolar/nuclear readout signal (for ENP1 -LMB: less RNAPI inhibition; for +LMB ENP1 and RP reporters: stronger nuclear/nucleolar retention, i.e. ribosome biogenesis defect). Conditions: concentration: 1 µM; treatment time: 6 h; ENP1 +LMB; leptomycin B: 20 nM, last 1.5 h.

The subject of assay [2] is HeLa K (ENP1 immunofluorescence, no LMB). Described as above. The following applies: concentration: 1 µM; treatment time: 6 h; ENP1 -LMB; leptomycin B: none.
The test system of another assay is HeLa RPS2-YFP reporter. In words: fraction of reporter-positive cells with nuclear (nucleolar or nucleolar/nucleoplasmic) RPS2-YFP (MainHitrate); higher = more cells with nucleolar/nuclear readout signal (for ENP1 -LMB: less RNAPI inhibition; for +LMB ENP1 and RP reporters: stronger nuclear/nucleolar retention, i.e. ribosome biogenesis defect). Conditions: concentration: 1 µM; treatment time: 6 h.

A further assay has as its system HeLa RPL29-GFP reporter. Nature of the assay: fraction of reporter-positive cells with nuclear (nucleolar or nucleolar/nucleoplasmic) RPL29-GFP (MainHitrate); higher = more cells with nucleolar/nuclear readout signal (for ENP1 -LMB: less RNAPI inhibition; for +LMB ENP1 and RP reporters: stronger nuclear/nucleolar retention, i.e. ribosome biogenesis defect). The following applies: concentration: 1 µM; treatment time: 6 h.

The source of these data is the supplement of paper PMC12542422.

Structures can show the parent of a compound that is named as a salt. ± gives the standard deviation of the averaged measurements. The list shows a part of the results. Values are raw readings; no control value is given beside them.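 HeLa cells imaged for ribosome-assembly readouts (ENP1 staining with or without export block, or inducible tagged ribosomal protein reporters); machine learning classified each cell's signal location against solvent (DMSO) controls. Hits exceeded the DMSO false-positive mean by five standard deviations, then were visually confirmed; three biological replicates.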

In the case of `c1ccc(CN(CC2=NCCN2)c2ccccc2)cc1` [Antazoline HCl], the fraction in assay [1] amounted to 0.0488 ± 0.068; in assay [2], 0.987 ± 0.023. The “fraction of reporter-positive cells with nuclear” value (from here on “fraction … with nuclear”) came to 0.124 ± 0.11 with HeLa RPS2-YFP reporter and 0.224 ± 0.063 in the assay on HeLa RPL29-GFP reporter.

`CC(C)NCC(O)COc1cccc2ccccc12` (stereo unspecified) [Propranolol HCl]: the fraction in assay [1] is 0.0737 ± 0.1; in assay [2], 0.986 ± 0.024. Also, the results for the “fraction … with nuclear” value with HeLa RPS2-YFP reporter and in the assay with HeLa RPL29-GFP reporter were 0.122 ± 0.085 and 0.206 ± 0.08, respectively.

For `O=S(=O)(O)CCS` [Mesna (Uromitexan, Mesnex)], the fraction in assay [1] is 0.125 ± 0.15; in assay [2] it was 0.9988 ± 0.002. Moreover, the results for the “fraction … with nuclear” value with HeLa RPS2-YFP reporter and in the assay with HeLa RPL29-GFP reporter were 0.102 ± 0.056 and 0.227 ± 0.07, respectively.

On to `COc1nc(C)nc(Cl)c1NC1=NCCN1` [Moxonidine], for which the fraction in assay [1] was 0.123 ± 0.19; in assay [2], 0.995 ± 0.0086. The “fraction … with nuclear” value with HeLa RPS2-YFP reporter was 0.118 ± 0.069; in the assay on HeLa RPL29-GFP reporter, 0.234 ± 0.091.
